The results in this text go back to publication PMC4364741.

By UniProt entry, the sequences of proteins in these tests, tags left out. Where a name states a change or a piece, a line headed by the entry shows the natural chain unless it says otherwise.
UniProt Q9JXE1: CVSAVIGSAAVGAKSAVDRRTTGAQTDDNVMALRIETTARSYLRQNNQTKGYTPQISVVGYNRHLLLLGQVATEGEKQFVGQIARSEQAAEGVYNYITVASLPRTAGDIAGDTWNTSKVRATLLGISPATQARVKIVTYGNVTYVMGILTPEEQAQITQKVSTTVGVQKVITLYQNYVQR

Test [1] addresses Histone H1 from calf thymus (calf). In words: ELISA; microtiter plates coated with 1 μg/well of Histone H1, incubated with different doses of CRP; A450; both purified. Background: ELISA stands for enzyme-linked immunosorbent assay.
Test [2] concerns the target Genome-derived Neisserial antigen GNA0278 (Neisseria meningitidis). In words: ELISA; plastic wells coated with the recombinant Nm proteins (1 μg/well), incubated with human or murine PTX3, human CRP or SAP (22 pmoles) for 1 h at 37°C, then antibodies; A450; both purified.
Test [3] concerns the target Genome-derived Neisserial antigen GNA2091 (Neisseria meningitidis) (UniProt Q9JXE1). Described as above.

Results are given in words; binding and its absence hold for the method and conditions named. For part of these data: A result given as binding can be weak or reduced; the word gives no strength.

B1: Human C reactive Protein (protein, UniProt P02741 19-224)
chain: QTDMSRKAFVFPKESDTSYVSLKAPLTKPLKAFTVCLHFYTELSSTRGYSIFSYATKRQDNEILIFWSKDIGYSFTVGGSEILFEVPEVTVAPVHICTSWESASGIVEFWVDGKPRVRKSLKKGYTVGAEASIILGQEQDSFGGNFEGSQSLVGDIGNVNMWDFVLSPDEINTIYLGGPFSPNVLNWRALKYEVQGEVFTKPQLWP
Consider B1, for which the binding entry in test [1] was “binds”; in test [2], “no binding (tested: 22 pmoles)”; in test [3] it was “no binding (tested: 22 pmoles)”.
